Assay results from publication doi:10.1101/2024.02.05.578895.
These are yes or no findings as the source states them, for the method shown. Binding seen in cells or lysates may run through a third protein. Some results given as binding are weak or reduced against the parent protein; the word gives no strength.

By UniProt entry, the sequences of proteins in these tests, tags left out.
UniProt P04198: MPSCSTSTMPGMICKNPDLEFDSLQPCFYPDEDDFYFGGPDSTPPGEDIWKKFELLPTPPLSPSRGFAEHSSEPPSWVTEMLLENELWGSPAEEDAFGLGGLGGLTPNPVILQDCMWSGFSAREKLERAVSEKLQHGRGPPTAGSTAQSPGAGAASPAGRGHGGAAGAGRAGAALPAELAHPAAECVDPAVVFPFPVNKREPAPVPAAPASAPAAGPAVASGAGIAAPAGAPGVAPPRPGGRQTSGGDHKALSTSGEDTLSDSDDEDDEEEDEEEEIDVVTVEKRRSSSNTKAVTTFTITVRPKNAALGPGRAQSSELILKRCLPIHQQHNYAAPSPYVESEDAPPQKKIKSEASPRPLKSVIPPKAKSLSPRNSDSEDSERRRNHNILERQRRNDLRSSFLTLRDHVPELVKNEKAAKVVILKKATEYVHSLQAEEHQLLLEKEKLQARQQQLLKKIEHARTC
UniProt Q92841: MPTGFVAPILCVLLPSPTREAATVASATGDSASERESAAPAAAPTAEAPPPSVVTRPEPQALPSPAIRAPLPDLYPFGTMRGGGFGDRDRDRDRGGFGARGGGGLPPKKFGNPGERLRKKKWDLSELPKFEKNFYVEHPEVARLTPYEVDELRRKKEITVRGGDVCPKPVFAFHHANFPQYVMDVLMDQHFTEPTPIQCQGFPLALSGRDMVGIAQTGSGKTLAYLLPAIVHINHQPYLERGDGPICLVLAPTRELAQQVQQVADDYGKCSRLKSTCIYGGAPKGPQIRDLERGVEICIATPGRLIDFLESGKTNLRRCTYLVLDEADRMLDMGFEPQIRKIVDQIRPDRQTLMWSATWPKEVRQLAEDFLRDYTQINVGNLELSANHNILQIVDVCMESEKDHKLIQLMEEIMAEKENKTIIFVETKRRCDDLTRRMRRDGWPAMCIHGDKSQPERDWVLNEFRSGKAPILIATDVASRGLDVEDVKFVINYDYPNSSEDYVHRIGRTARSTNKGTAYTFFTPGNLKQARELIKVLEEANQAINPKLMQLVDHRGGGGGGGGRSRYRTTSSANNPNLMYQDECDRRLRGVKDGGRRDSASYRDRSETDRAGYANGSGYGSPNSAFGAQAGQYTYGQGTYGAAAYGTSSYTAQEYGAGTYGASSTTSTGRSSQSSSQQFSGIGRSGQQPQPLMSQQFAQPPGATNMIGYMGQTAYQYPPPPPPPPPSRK
UniProt P17844: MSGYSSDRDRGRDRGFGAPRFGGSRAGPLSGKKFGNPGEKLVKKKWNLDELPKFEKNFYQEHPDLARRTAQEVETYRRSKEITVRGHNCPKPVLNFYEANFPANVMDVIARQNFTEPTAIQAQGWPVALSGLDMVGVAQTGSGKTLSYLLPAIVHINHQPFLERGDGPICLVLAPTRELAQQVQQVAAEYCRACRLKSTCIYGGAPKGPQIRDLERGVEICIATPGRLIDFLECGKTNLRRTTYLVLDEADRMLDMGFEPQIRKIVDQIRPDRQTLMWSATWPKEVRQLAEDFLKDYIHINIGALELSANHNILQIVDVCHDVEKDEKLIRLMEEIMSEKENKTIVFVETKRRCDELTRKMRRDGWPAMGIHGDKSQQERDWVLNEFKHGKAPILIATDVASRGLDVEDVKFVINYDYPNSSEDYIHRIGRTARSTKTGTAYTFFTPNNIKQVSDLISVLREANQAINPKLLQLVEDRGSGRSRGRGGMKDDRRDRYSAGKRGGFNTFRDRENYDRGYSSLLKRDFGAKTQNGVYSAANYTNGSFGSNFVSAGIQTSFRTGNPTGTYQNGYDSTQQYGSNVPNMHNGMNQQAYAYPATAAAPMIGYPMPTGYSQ

Target: MYCN oncoprotein (human (endogenous in SK-N-BE(2))) (UniProt P04198)
Experiment: co-IP

binding | Substance
binds | DEAD box ATP-dependent RNA helicase DDX17 (from UniProt Q92841 1-729)
no binding | DEAD box helicase DDX5 (from UniProt P17844 1-614)
